The supplement of paper PMC6411743
± gives the standard deviation of the averaged measurements. This is one part of the list.

Target: T1, H0YN33 and related entries (UniProt Q9BW66)
T1 sequence (whole entry): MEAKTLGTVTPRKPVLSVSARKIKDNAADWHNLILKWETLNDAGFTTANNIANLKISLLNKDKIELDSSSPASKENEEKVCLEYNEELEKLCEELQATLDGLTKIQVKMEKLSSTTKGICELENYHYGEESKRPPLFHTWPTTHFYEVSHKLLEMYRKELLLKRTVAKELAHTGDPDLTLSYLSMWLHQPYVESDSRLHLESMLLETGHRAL
Assay: NP40-soluble protein abundance relative to vehicle (solubility fold change) (ratio); higher = more soluble protein in presence of GTP
Method: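 Solubility proteome profiling in Jurkat crude lysate. Lysate was treated with Mg-GTP (0.1-10 mM) for 10 min at room temperature and 3 min at 37 °C, then solubilised with 0.8% NP40 and benzonase, followed by ultracentrifugation. Proteins were quantified by TMT10 LC-MS/MS; the value is the NP40-soluble abundance relative to the NP40-processed vehicle, from 3 independent experiments.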

## Nc1nc2c(ncn2[C@@H]2O[C@H](COP(=O)(O)OP(=O)(O)OP(=O)(O)O)[C@@H](O)[C@H]2O)c(=O)[nH]1 [guanosine triphosphate]
concentration: 0.1mM
  NP40-soluble protein abundance: 1.37 ± 0.14
concentration: 0.5mM
  NP40-soluble protein abundance: 1.12 ± 0.022
concentration: 1mM
  NP40-soluble protein abundance: 1.33 ± 0.17
concentration: 2mM
  NP40-soluble protein abundance: 1.6 ± 0.11
concentration: 4mM
  NP40-soluble protein abundance: 1.61 ± 0.078
concentration: 6mM
  NP40-soluble protein abundance: 1.63 ± 0.11
concentration: 8mM
  NP40-soluble protein abundance: 1.69 ± 0.25
concentration: 10mM
  NP40-soluble protein abundance: 1.73 ± 0.26
